The numbers were not newly measured in patent US7297489B2, “Mutations in and genomic structure of HERG—a long QT syndrome gene” (University of Utah Research Foundation, priority 1998, dated 2007), which cites them from elsewhere.

In the data set the test system is IKr of cardiac myocytes. The note with it: nM concentrations; cited from earlier work.

Regarding `Cc1cccc(CCN2CCC(C(=O)c3ccc(NS(C)(=O)=O)cc3)CC2)n1` [E-4031], the “block of IKr” value is “blocked”.
